# Measured values from patent publication US5965701A (priority 1997, dated 1999).
# [ ]: non-standard residue; d: D form. dNle = CCCC[C@@H](N)C(=O)O
# Test: solution-phase peptide synthesis; BOP or DIC/HOBt
# Conditions: whole synthesis, RP-HPLC (two mobile phases) and capillary electrophoresis
substance,measurement,value
H-[dF][dF][dNle][dR]-NHEt,final HPLC purity,>98%
